Measurements from patent US20090196876A1.
These are yes or no findings as the source states them, for the method shown. Some results given as binding are weak or reduced against the parent protein; the word gives no strength. Where a sequence is shown, tags or fusion partners need not be part of it.

B1: EGFL8 (also called NG3) (ligand, UniProt Q99944 26-293, looked up)
chain: AKGGSLRESQGVCSKQTLVVPLHYNESYSQPVYKPYLTLCAGRRICSTYRTMYRVMWREVRREVQQTHAVCCQGWKKRHPGALTCEAICAKPCLNGGVCVRPDQCECAPGWGGKHCHVDVDECRTSITLCSHHCFNTAGSFTCGCPHDLVLGVDGRTCMEGSPEPPTSASILSVAVREAEKDERALKQEIHELRGRLERLEQWAGQAGAWVRAVLPVPPEELQPEQVAELWGRGDRIESLSDQVLLLEERLGACSCEDNSLGLGVNHR
B2: NT3 (ligand, UniProt P20783 139-257, looked up)
chain: YAEHKSHRGEYSVCDSESLWVTDKSSAIDIRGHQVTVLGEIKTGNSPVKQYFYETRCKEARPVKNGCRGIDDKHWNSQCKTSQTYVRALTSENNKLVGWRWIRIDTSCVCALSRKIGRT
B3: NT4 (ligand, UniProt P34130 81-210, looked up)
chain: GVSETAPASRRGELAVCDAVSGWVTDRRTAVDLRGREVEVLGEVPAAGGSPLRQYFFETRCKADNAEEGGPGAGGGGCRGVDRRHWVSECKAKQSYVRALTADAQGRVGWRWIRIDTACVCTLLSRTGRA
B4: BDNF (ligand, UniProt P23560 129-247, looked up)
chain: HSDPARRGELSVCDSISEWVTAADKKTAVDMSGGTVTVLEKVPVSKGQLKQYFYETKCNPMGYTKEGCRGIDKRHWNSQCRTTQSYVRALTMDSKKRIGWRFIRIDTSCVCTLTIKRGR

Target: T1, UNQ1900-ECD-Fc (human) (UniProt Q6UXG8)
T1 sequence: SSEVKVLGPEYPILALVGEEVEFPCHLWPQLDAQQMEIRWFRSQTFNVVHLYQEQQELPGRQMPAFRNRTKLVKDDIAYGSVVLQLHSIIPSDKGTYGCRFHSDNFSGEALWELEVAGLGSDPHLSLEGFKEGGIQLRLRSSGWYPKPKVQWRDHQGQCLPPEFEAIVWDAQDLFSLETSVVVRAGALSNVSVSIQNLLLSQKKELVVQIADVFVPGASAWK
Assay: BiaCore; UNQ1900-ECD-Fc coated on chip, 275 proteins tested as analytes

binding | Binder
binds | B1
binds | B2
binds | B3
binds | B4
